Measured values taken from patent publication US20130136743A1 (LABORATOIRE FRANCAIS DU FRACTIONNEMENT ET DES …, published 2013).
These are yes or no findings as the source states them, for the method shown. Some binding calls cover weakened binding; strength is not graded here. For some assays here: Tags and fused reporters may be left off the sequences shown.

Columns and labels:
[1] = biological target: T1, AMHR-II/Fc fusion protein (human, UniProt Q16671 18-149, limits assumed); experiment: ELISA with soluble Fab (FIG. 17)
T1 construct: also called AMHR-II recombinant receptor expressed in the form of fusion protein with a region Fc; recombinant target; not shown: Fc region
T1 sequence (looked up): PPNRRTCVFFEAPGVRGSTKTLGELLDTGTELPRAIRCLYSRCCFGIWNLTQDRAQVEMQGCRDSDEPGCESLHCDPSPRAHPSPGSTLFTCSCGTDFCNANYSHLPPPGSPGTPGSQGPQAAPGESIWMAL

[2] = biological target: T1, AMHR-II/Fc fusion protein; experiment: ELISA, soluble Fab titrated in twofold steps (5.000 to 0.078 µg/ml) on the AMHR-II receptor, OD at 450 nm
[3] = biological target: T2, AMHR-II human receptor (human, UniProt Q16671 18-573, limits assumed); experiment: comment on the affinity determinations
T2 sequence (looked up): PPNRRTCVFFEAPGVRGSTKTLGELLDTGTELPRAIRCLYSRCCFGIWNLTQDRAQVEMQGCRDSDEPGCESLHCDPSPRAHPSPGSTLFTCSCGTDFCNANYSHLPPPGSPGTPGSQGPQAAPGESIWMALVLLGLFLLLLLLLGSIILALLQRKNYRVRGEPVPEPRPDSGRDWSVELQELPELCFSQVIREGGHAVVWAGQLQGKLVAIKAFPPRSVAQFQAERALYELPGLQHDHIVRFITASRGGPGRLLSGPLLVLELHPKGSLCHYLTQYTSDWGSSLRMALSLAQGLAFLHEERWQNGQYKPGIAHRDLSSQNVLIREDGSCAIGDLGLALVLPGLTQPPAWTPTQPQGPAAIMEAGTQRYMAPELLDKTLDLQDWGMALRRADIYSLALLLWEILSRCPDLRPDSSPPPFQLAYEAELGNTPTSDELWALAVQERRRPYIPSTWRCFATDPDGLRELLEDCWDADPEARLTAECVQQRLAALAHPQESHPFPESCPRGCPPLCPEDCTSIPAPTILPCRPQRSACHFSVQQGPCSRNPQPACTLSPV

| Binder | binding [1] | binding [2] | binding [3] |
| --- | --- | --- | --- |
| 6B-78 soluble Fab (Fab, V domains shown) VH: QVQLVQSGAEVKKPGASVKVSCKASGYTFTSYHIHWVRQAPGQRLEWMGWIYPGDDSTKYSQKFQGRVTITRDTSASTAYMELSSLRSEDTAVYYCTRGDRFAYWGQGTLVTVSS VL: DIQMTQSPSTLSASVGDRVTITCRASSSVRYIAWYQQKPGKAPKLLIYSTSSLKSGVPSRFSGSGSGTEFTLTISSLQPDDFATYYCLQWSSYPWTFGGGTKVEIK | binds | binds | – |
| 3C-23 soluble Fab (Fab, V domains shown) VH: QVRLVQSGAEVKKPGASVKVSCKASGYTFTSYHIHWVRQAPGQRLEWMGWIYPGDDSTKYSQKFQGRVTITRDTSASTAYMELSSLRSEDTAVYYCTRGDRFAYWGQGTLVTVSS VL: DIQMTQSPSTLSASVGDRVTITCRASSSVRYIAWYQQKPGKAPKLLTYPTSSLESGVPSRFSGSGSGTEFTLTISSLQPDDFATYYCLQWSSYPWTFGGGTKVEIK | binds | binds | – |
| 3C-23K soluble Fab (Fab, V domains shown) VH: QVRLVQSGAEVKKPGASVKVSCKASGYTFTSYHIHWVRQAPGQRLEWMGWIYPGDDSTKYSQKFQGRVTITRDTSASTAYMELSSLRSEDTAVYYCTRGDRFAYWGQGTLVTVSS VL: DIQMTQSPSTLSASVGDRVTITCRASSSVRYIAWYQQKPGKAPKLLTYPTSSLKSGVPSRFSGSGSGTEFTLTISSLQPDDFATYYCLQWSSYPWTFGGGTKVEIK | binds | binds | – |
| murine 12G4 monoclonal antibody (antibody, V domains shown, also called mLFB112; original murine 12G4 antibody) VH: QVQLQQSGPELVKPGASVRMSCKASGYTFTSYHIHWVKQRPGQGLEWIGWIYPGDDSTKYNEKFKGKTTLTADKSSSTAYMLLSSLTSEDSAIYFCTRGDRFAYWGQGTLVTVSA VL: QIVLTQSPAIMSASLGEGITLTCSASSSVRYIHWYQQKSGTSPKLLIYSTSNLASGVPSRFSGSGSGTFHSLTISSVEAEDAADYYCLQWSSYPWTFGGGTKLEIK | – | – | binds |
| unmutated humanized 12G4 monoclonal antibody (antibody, human IgG1, kappa, V domains shown, Variable regions without leader joined to the constant regions; also called huLFB112; 632 07 107 Anti AMHRII hum 1st) VH: QVQLVQSGAEVKKPGASVKVSCKASGYTFTSYHIHWVRQAPGQRLEWMGWIYPGDDSTKYSQKFQGRVTITRDTSASTAYMELSSLRSEDTAVYYCTRGDRFAYWGQGTLVTVSS VL: DIQMTQSPSTLSASVGDRVTITCRASSSVRYIAWYQQKPGKAPKLLIYSTSSLESGVPSRFSGSGSGTEFTLTISSLQPDDFATYYCLQWSSYPWTFGGGTKVEIKR | – | – | binds |
